This assay addresses NOMOΔTM-FLAG (NOMO1 residues 1-1160, lacking the transmembrane and cytosolic domains) (human) (UniProt Q15155). Put plainly: SEC-MALS. Background: In gel filtration, larger molecules generally elute earlier.

By UniProt entry, the sequences of proteins in these tests, tags left out. Where a name states a change or a piece, a line headed by the entry shows the natural chain unless it says otherwise. Residues count along the entry.
UniProt Q15155, residues 32-1160: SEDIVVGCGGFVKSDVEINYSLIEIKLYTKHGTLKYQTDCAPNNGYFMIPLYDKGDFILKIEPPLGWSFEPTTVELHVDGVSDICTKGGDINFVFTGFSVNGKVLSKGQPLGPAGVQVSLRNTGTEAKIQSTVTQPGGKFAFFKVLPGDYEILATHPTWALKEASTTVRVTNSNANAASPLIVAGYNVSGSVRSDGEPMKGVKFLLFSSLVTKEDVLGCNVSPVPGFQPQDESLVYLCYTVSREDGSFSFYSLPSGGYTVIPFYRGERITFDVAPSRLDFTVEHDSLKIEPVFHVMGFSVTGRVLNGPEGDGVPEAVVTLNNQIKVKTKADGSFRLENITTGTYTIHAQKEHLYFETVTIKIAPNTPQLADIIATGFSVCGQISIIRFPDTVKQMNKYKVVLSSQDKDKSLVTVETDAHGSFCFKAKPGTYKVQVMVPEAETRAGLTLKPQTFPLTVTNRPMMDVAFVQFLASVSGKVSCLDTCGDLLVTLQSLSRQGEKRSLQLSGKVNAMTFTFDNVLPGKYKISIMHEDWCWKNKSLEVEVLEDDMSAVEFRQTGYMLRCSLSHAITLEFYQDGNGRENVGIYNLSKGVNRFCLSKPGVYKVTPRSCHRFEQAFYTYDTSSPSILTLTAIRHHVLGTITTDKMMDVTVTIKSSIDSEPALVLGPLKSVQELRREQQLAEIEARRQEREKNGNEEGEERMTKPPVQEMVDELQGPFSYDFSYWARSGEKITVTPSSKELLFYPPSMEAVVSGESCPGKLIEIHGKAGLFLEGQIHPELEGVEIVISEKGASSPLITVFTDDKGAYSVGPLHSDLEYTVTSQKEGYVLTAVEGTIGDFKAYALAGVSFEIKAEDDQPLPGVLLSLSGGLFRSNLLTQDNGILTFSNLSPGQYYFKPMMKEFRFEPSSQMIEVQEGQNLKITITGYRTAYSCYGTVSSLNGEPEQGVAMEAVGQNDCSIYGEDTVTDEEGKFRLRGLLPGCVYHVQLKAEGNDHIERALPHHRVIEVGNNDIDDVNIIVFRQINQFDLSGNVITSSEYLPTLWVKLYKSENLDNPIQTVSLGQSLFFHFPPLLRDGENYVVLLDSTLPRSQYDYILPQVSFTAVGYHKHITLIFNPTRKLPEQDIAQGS

Results are given in words; binding and its absence hold for the method and conditions named.

With “NOMOΔTM-FLAG (NOMO1 residues 1-1160, lacking the transmembrane and cytosolic domains) (from UniProt Q15155 32-1160) (domain or fragment)”, the binding result was “no binding”.

Source of the values: paper doi:10.1101/2021.01.28.428001 (bioRxiv, 2021).
